PubChem BioAssay AID1159596 | NIAID – 2016
Shown is an unselected part of 756 reagents tested. 143 of all reagents (19%) count as active. 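Active means the reporter moved past about ±1.5 in either direction; scores are per single siRNA, not per gene; peptidoglycan dose not given.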 Unmarked entries are inactive. Reagents against one gene are numbered here. Not stated in the record: the amount of reagent.

- Test: 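Knock-down of 126 toll-like receptor signalling parts, six siRNAs each, on a TNF reporter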 (primary screen)
- Cell system: human THP1 B5 monocytic reporter cells made macrophage-like with PMA
- Reagent: single siRNA against human genes
- Timing: assayed 48 to 72 hours after siRNA transfection; peptidoglycan stimulation lasted 4 hours
- Challenge: Staphylococcus aureus peptidoglycan for 4 hours; dose not given
- Measured: 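TNF-alpha promoter firefly/renilla luciferase ratio after 4 h s. aureus peptidoglycan; plate median/MAD scaled, robust z versus negative control wells, mean of replicates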
- Direction: TNF reporter z-score: higher = stronger TNF promoter reporter response to peptidoglycan
- Call rule: In these data the active calls have TNF reporter z-score, replicate mean at about -1.5 or lower, or at about 1.5 or higher
- Meaning of the calls: active = reporter shifted beyond cut (either direction); inactive = reporter near control level

{"Gene":"CXCL9","reagent no.":1,"TNF reporter z-score, replicate mean":-1.06}
{"Gene":"CXCL9","reagent no.":2,"TNF reporter z-score, replicate mean":-0.212}
{"Gene":"CXCL9","reagent no.":3,"TNF reporter z-score, replicate mean":-0.942}
{"Gene":"CXCL9","reagent no.":4,"TNF reporter z-score, replicate mean":"-2.11 (active)"}
{"Gene":"CXCL9","reagent no.":5,"TNF reporter z-score, replicate mean":-0.348}
{"Gene":"CXCL9","reagent no.":6,"TNF reporter z-score, replicate mean":0.437}
